# Fewer than 10 of roughly 6,900 compounds were called active. The call rests on the fitted dose curve; in most records, active means well fitted curve in the direction sought with a large enough effect; inconclusive means small, poorly fitted or top-dose-only effect, or another doubt; inactive means no such curve, though single readings can be large or run the other way. The list shows a part of the results.
# Sequences of proteins named here, by UniProt entry; tags and fusion partners are left off. A change or cut given only in a name is not applied to a line headed by its entry.
# UniProt C7C422: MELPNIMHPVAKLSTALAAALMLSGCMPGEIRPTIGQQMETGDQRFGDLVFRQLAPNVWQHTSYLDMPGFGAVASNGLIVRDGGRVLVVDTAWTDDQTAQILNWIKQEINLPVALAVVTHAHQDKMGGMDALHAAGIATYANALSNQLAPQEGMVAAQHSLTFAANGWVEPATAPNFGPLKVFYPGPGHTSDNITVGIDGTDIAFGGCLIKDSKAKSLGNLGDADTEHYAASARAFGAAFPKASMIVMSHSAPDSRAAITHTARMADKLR
# Biological target: Metallo-beta-lactamase type 2 (Klebsiella pneumoniae) (UniProt C7C422)
# Experiment: qHTS to identify inhibitors of the New Delhi Metallo-beta-lactamase (NDM): primary screen against the NCATS Gemini Collection; further: % of control where 0% means no effect
# Conditions: NDM-1 enzyme, meropenem hydrolysis, absorbance 300 nm; at 38.4 µM (top of the series) unless noted
# In short: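 NDM-1 at 2 nM final in 50 mM HEPES pH 7.0, 1 uM ZnSO4, 0.01% Tween20, preincubated >30 min with compound. Meropenem 50 uM final added; absorbance at 300 nm after 30 min.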
row,Structure (SMILES),activity % (negative = inhibition)
1,O=[S+]([O-])(Nc1ccccc1)c1ccc2c(c1)OCCN(Cc1nccs1)C2,inactive: -1.87% [at 57.5 µM]
2,CNC(=O)Nc1ccc(C)n(CC(=O)N2CCN(c3cc(C)ccc3C)CC2)c1=O,inactive: 4.54%
3,Cn1nnnc1C1CCCN(C(=O)CCC2CCCC2)C1 (configuration not stated),inactive: -3.83%
4,COc1ccc(CN2C(=O)[C@H](OC)[C@@H]2C2=CCN(C(=O)CC(C)C)CC2)cc1,inactive: 15%
5,O=S(=O)(c1ccccc1C(F)(F)F)N1CC(c2nc(-c3ccncc3)no2)C1,inactive: -0.186%
6,CCN(CC)c1cc(CCC(=O)NCCCN2CCOCC2)ccn1,inactive: 5.59%
7,CNC(=O)[C@@H](CC(C)C)N1CCC[C@H]1C(=O)NCCc1ccccn1,inactive: 12.8% [at 57.5 µM]
8,O=C(N1CCC2(CCNCC2)CC1)C1(S(=O)(=O)c2ccccc2)CC1,inactive: 12.6%
9,CN(C)Cc1cc(C[C@@H]2C[C@H](NCc3ccc(F)cc3)C2(C)C)no1,inactive: -10.5% [at 57.5 µM]
10,CC(=O)N1CCN(CC[C@H]2CN(C(=O)c3ccnc(Cl)c3)CC[C@H]2CC(=O)O)CC1,inactive: 0.543%
11,CS(=O)(=O)N1CC2(CCCN(Cc3cccnc3)C2)Cc2ccccc21 (configuration not stated),inactive: 1.09%
12,CC(=O)NCCNC(=O)C1CCCN(S(=O)(=O)c2ccccc2)CCC(=O)NCC1 (configuration not stated),inactive: -4.87%
13,CNC(=O)C(C)N(C)C(=O)c1coc(CN2CCN(c3ccccc3F)CC2)n1 (configuration not stated),inactive: 21.1%
14,COc1ccc(CN2CCCC3(CC(c4cccc(C(F)(F)F)c4)=NO3)C2)cc1 (configuration not stated),inactive: 3.04%
15,CC1(C)C[C@H](NCC2CCCCC2)[C@@]2(CCC(=O)N3CCCC3)CC[C@](C)(O)C[C@@H]12,inactive: -2.59% [at 57.5 µM]
16,CCc1c(C)nn(CC(=O)N2CC(C)(C)[C@@](C)(O)C2)c1C,inactive: 1.08%
17,CC(C)c1nc(CNC(=O)c2ccc(NC3CCCCC3)nc2)no1,inactive: 15.4%
18,COc1ccc(-c2nn(-c3ccccc3)cc2CN2CCC(F)CC2)c(F)c1,inactive: -7.22%
19,CC1CCC(NC(=O)c2cc3n(n2)CC(c2ccc(Cl)cc2)OC3)CC1 (configuration not stated),inactive: -0.96%
20,COC1CCOC2(CCN(S(=O)(=O)c3cn(C)cn3)CC2)C1 (configuration not stated),inactive: -7.49%
21,CC(C)N1C[C@@H](F)[C@@H](OCc2nc3ccc(F)cc3[nH]2)C1,inactive: 9.58% [at 57.5 µM]

row,Structure (SMILES),activity % (negative = inhibition)
1,O=C(Nc1ccccc1F)C1CN(C2CCCC2)C(=O)N1 (configuration not stated),inactive: 1.82% [at 57.5 µM]
2,O=C(NCc1ccccc1Cn1cccn1)c1ccc2cccc(F)c2n1,inactive: 9.12%
3,O=C(NCc1nnc2ccccn12)[C@H]1CNC[C@H](C(=O)N2CCOCC2)C1,inactive: 7.37%
4,COc1cccc(CNC(=O)CCNc2cnc3cnccn23)c1,inactive: 9.82%
5,CC(C)n1nccc1S(=O)(=O)N[C@@H]1[C@@H](Cc2ccccc2)[C@H]2OCC[C@@H]12,inactive: 0.185%
6,CN(C)Cc1nnc(C2CCN(Cc3cnc(-c4ccccn4)nc3)CC2)n1C,inactive: 0.518%
7,Cc1ccoc1C(=O)N1CC[C@@H]2CN(S(C)(=O)=O)[C@@H]2C1,inactive: -0.468%
8,O=C(NCc1nc(-c2ncccn2)no1)C1CCCN(Cc2ccco2)C1 (configuration not stated),inactive: -0.87%
9,O=C1CCN(C(=O)Nc2ccccc2F)CCCC(C(=O)NCc2ccncc2)CCN1 (configuration not stated),inactive: 5.3%
10,COCC(NC(=O)c1ccc2nc(C3CCCCC3)oc2c1)c1ccnn1C (configuration not stated),inactive: -0.0037%
11,c1cc(-c2ccnc3nc(C4CCC4)nn23)ccn1,inactive: 25%
12,O=C(Nc1ccc(F)cc1)c1cc2cccnn2n1,inactive: 27.8% [at 57.5 µM]
13,O=C(O)CC[C@@H]1CN(C(=O)c2ccc(CO)o2)CC[C@@H]1N1CCOCC1,inactive: 86.3%
14,COCCNC(=O)[C@H]1C[C@H](Oc2cccnc2)CN1S(=O)(=O)c1cn(C)cn1,inactive: 6.1%
15,CN(CC1CCOC1)C(=O)c1cccs1 (configuration not stated),inactive: -4.04%
16,Cc1ccc(CNC(=O)N2CCCC(CN3CCC(C)CC3)CC2)cc1 (configuration not stated),inactive: -0.299%
17,CCCn1cc(C(=O)NCC2COc3cc(OC)ccc3C2)c(C)n1 (configuration not stated),inactive: 0.463%
18,COc1ccc(Cl)cc1NC(=O)C1CN(S(C)(=O)=O)CC12CCCCC2 (configuration not stated),inactive: 35.1%
19,CNC(=O)[C@@H]1C[C@@H](n2cc(CNC(=O)Nc3ccc(Cl)cc3C)nn2)CN1,inactive: 19.6%
20,O=C(c1cc2ccccc2[nH]1)N1CCCC2(C1)NC(=O)N(Cc1ccccc1)C2=O (configuration not stated),inactive: 3.64%
21,CNC(=O)c1cc(C2CC2)nc2c1c(C1CCCN([S+](=O)([O-])c3c(C)noc3C)C1)nn2C (configuration not stated),inactive: 9.28%

# Copied from the list:
# c1cc(-c2ccnc3nc(C4CCC4)nn23)ccn1 | activity % (negative = inhibition): inactive: 25%
# CNC(=O)c1cc(C2CC2)nc2c1c(C1CCCN([S+](=O)([O-])c3c(C)noc3C)C1)nn2C (configuration not stated) | activity % (negative = inhibition): inactive: 9.28%
# Cc1ccoc1C(=O)N1CC[C@@H]2CN(S(C)(=O)=O)[C@@H]2C1 | activity % (negative = inhibition): inactive: -0.468%
# O=C(O)CC[C@@H]1CN(C(=O)c2ccc(CO)o2)CC[C@@H]1N1CCOCC1 | activity % (negative = inhibition): inactive: 86.3%

# Reference: PubChem BioAssay AID1794845 (National Center for Advancing Translational Sciences (NCATS), 2023)
